In article PMC7795528:
No constants are given. Whether binding was seen depends on the method and setting. In cells and extracts the contact can be indirect. Some results given as binding are weak or reduced against the parent protein; the word gives no strength.

Amino acid sequences for entries named in this document (tags omitted). A change or cut given only in a name is not applied to a line headed by its entry. Residues count along the entry.
wild type RANKL (mRANKL-WT), recombinant GST fusion RANKL protein (O35235, residues 158-316): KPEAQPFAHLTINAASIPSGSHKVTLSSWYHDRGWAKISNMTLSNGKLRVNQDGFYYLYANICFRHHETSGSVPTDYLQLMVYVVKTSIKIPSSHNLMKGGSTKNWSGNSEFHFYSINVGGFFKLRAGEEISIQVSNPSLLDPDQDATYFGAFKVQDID

Legend:
[1] = target: T1, leucine-rich repeat-containing G-protein-coupled receptor 4 (LGR4) (mouse (endogenous in BMMs)) (UniProt A2ARI4); assay: co-IP; BMM cells incubated with 500 ng/mL of mRANKL-WT or mRANKL-MT3 at 37 °C for 45 min, lysed; whole cell lysates precipitated with antibodies to RANK or LGR4 and protein A Sepharose, 2 h at room temperature; western blot; only the binder purified
T1 sequence: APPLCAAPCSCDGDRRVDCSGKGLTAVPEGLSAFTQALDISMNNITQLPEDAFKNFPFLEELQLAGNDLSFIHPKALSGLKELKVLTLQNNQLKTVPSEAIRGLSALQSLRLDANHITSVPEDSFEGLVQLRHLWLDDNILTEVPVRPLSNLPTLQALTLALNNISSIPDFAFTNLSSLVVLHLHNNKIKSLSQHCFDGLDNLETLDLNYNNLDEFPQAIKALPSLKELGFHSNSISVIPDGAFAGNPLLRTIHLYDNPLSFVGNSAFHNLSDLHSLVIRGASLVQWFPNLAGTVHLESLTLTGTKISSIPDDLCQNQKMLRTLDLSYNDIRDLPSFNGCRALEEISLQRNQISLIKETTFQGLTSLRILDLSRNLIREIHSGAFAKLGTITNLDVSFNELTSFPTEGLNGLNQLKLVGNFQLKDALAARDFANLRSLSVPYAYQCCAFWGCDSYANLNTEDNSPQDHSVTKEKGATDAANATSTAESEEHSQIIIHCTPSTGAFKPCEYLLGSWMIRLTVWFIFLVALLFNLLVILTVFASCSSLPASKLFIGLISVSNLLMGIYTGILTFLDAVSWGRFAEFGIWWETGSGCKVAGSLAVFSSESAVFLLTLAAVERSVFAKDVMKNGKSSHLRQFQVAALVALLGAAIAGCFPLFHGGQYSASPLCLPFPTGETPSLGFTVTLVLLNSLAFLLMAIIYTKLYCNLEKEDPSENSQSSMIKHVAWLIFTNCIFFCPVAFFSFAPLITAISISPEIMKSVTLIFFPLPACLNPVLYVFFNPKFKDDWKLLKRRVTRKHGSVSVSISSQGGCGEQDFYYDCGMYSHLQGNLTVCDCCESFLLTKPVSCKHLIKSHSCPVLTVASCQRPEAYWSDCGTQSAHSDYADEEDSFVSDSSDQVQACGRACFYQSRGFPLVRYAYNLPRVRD

[2] = target: T2, RANK (mouse (endogenous in BMMs)) (UniProt O35305); assay: as above
T2 sequence: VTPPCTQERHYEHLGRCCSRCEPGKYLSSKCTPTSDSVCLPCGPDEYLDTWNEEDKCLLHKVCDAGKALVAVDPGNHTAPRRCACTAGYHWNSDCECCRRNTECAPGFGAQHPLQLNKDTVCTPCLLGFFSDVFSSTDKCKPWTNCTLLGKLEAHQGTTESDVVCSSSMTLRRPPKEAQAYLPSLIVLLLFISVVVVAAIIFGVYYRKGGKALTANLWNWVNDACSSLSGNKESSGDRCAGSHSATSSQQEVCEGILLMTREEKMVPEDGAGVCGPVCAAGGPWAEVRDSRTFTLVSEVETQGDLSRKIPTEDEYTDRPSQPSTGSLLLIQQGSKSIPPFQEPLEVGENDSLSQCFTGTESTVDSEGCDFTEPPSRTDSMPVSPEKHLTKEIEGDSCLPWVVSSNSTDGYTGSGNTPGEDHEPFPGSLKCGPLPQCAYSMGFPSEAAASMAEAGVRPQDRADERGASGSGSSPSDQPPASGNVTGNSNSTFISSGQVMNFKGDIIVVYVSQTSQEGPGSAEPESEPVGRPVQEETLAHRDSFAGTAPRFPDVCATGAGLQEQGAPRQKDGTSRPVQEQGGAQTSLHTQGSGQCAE

Row | binding [1] | binding [2] | Substance
1 | binds | – | mutant RANKL (mRANKL-MT), recombinant GST fusion RANKL protein with K180R, D189I, R190K, H223F, H224Y (from UniProt O35235 158-316) (ligand)
2 | binds | binds | wild type RANKL (mRANKL-WT), recombinant GST fusion RANKL protein (from UniProt O35235 158-316) (ligand)
